PubChem BioAssay AID1159578 | Peter MacCallum Cancer Centre | 2015

Screen: 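Knock-downs that alter how fast lymphatic endothelial cells migrate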 (primary screen)
System: human lymphatic endothelial cells
Knock-down reagent: siRNA pool against human genes, 40 nM
Duration: 48 h after transfection
Read-out: 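Cells stained with dye and imaged after a scratch; covered wound area and nuclei counted, duplicates averaged, migration set against mock wells and turned into a robust z-score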
Scale: migration robust z-score: higher = faster migration into the scratch; migration relative to mock: higher = more scratch area covered than mock; nuclei per well: higher = more cells in the well
Hit rule: 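Migration changed when robust z exceeds 2 or falls below -2 and mean nuclei number is at least 3300; otherwise not called changed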
Calls: active = migration changed; inactive = no migration change, or too few cells
This is one part, drawn at random, of about 18,000 reagents. About 1,030 of all reagents (5.7%) were called active. 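Inactive calls also include pools with fewer than 3300 nuclei, whose migration was not assessed.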 Raw values vary from plate to plate and are shown uncorrected. A number with no mark means an inactive call. Reagent sequences are not shown.

no.	gene knocked down	migration robust z-score	migration class with cell-count check	migration relative to mock	nuclei per well, duplicate mean
1	ZNF441 (zinc finger protein 441)	-0.52	migration z between -2 and 2; enough cells	0.75	6076
2	CHST2 (carbohydrate sulfotransferase 2)	0.14	migration z between -2 and 2; enough cells	0.92	5114
3	STUB1 (STIP1 homology and U-box containing protein 1)	-0.54	migration z between -2 and 2; enough cells	0.7	5210
4	GABPA (GA binding protein transcription factor subunit alpha)	0.26	migration z between -2 and 2; enough cells	0.86	5587
5	GNRH1 (gonadotropin releasing hormone 1)	-0.08	migration z between -2 and 2; enough cells	0.86	6632
6	EME2 (essential meiotic structure-specific endonuclease subunit 2)	1.37	migration z between -2 and 2; enough cells	1.24	6240
7	NCR2 (natural cytotoxicity triggering receptor 2)	1.25	migration z between -2 and 2; enough cells	1.04	6228
8	FAM90A1 (family with sequence similarity 90 member A1)	-1.59	migration z between -2 and 2; enough cells	0.48	5138
9	AMOTL2 (angiomotin like 2)	0.62	migration z between -2 and 2; enough cells	1.04	6496
10	PGC (progastricsin)	-1.3	migration z between -2 and 2; enough cells	0.56	5384
11	NOTCH4 (notch receptor 4)	0.31	migration z between -2 and 2; enough cells	0.86	5610
12	C1orf105 (chromosome 1 open reading frame 105)	0.19	migration z between -2 and 2; enough cells	0.94	5289
13	WDR17 (WD repeat domain 17)	0.86	migration z between -2 and 2; enough cells	1.11	6274
14	SQOR (sulfide quinone oxidoreductase)	-0.44	migration z between -2 and 2; enough cells	0.72	5193
15	RAPGEF6 (Rap guanine nucleotide exchange factor 6)	-1.03	under 3300 nuclei; migration not judged	0.6	3259
16	CCNP (cyclin P)	0.9	migration z between -2 and 2; enough cells	1.12	6684
17	MAVS (mitochondrial antiviral signaling protein)	-0.04	migration z between -2 and 2; enough cells	0.88	4794
18	PASD1 (PAS domain containing repressor 1)	-0.03	migration z between -2 and 2; enough cells	0.88	6710
19	RGS19 (regulator of G protein signaling 19)	-1.46	migration z between -2 and 2; enough cells	0.52	6257
20	BUB1B (BUB1 mitotic checkpoint serine/threonine kinase B)	-2.29 (active)	migration z below -2; enough cells	0.36	4434
21	SELENOV (selenoprotein V)	-0.86	migration z between -2 and 2; enough cells	0.66	4933
22	SH3BP2 (SH3 domain binding protein 2)	0.08	migration z between -2 and 2; enough cells	0.9	6228
23	EIF1AD	0.52	migration z between -2 and 2; enough cells	1.02	5585
24	YPEL2 (yippee like 2)	0.66	migration z between -2 and 2; enough cells	1.05	5226
25	CILP (cartilage intermediate layer protein)	-0.16	migration z between -2 and 2; enough cells	0.78	4672
26	RPS13 (ribosomal protein S13)	-1.82	migration z between -2 and 2; enough cells	0.42	4002
27	OR10G3 (olfactory receptor family 10 subfamily G member 3)	0.07	migration z between -2 and 2; enough cells	0.9	5338
28	RNF141 (ring finger protein 141)	-0.6	migration z between -2 and 2; enough cells	0.69	5549
29	LRRC23 (leucine rich repeat containing 23)	0.14	migration z between -2 and 2; enough cells	0.92	7238
30	POLR1C (RNA polymerase I and III subunit C)	1.64	migration z between -2 and 2; enough cells	1.12	6476
31	GCG (glucagon)	0.58	migration z between -2 and 2; enough cells	1.04	5429
32	DNAJB2 (DnaJ heat shock protein family (Hsp40) member B2)	-0.3	migration z between -2 and 2; enough cells	0.8	6824
33	AHCY (adenosylhomocysteinase)	-2.59 (active)	migration z below -2; enough cells	0.3	3891
34	DCAF4L2 (DDB1 and CUL4 associated factor 4 like 2)	0.57	migration z between -2 and 2; enough cells	1.04	6178
35	OSGEPL1 (O-sialoglycoprotein endopeptidase like 1)	-0.18	migration z between -2 and 2; enough cells	0.77	5638
36	MTM1 (myotubularin 1)	0.21	migration z between -2 and 2; enough cells	0.84	6714
37	ZFP90 (ZFP90 zinc finger protein)	-0.2	migration z between -2 and 2; enough cells	0.83	5597
38	ZCCHC2 (zinc finger CCHC-type containing 2)	0.71	migration z between -2 and 2; enough cells	1.07	5695
39	GNAT1 (G protein subunit alpha transducin 1)	0.03	migration z between -2 and 2; enough cells	0.89	5838

6 entries from above, limited to “nuclei per well, duplicate mean”:
GABPA (GA binding protein transcription factor subunit alpha): 5587
GNRH1 (gonadotropin releasing hormone 1): 6632
EME2 (essential meiotic structure-specific endonuclease subunit 2): 6240
NCR2 (natural cytotoxicity triggering receptor 2): 6228
FAM90A1 (family with sequence similarity 90 member A1): 5138
AMOTL2 (angiomotin like 2): 6496
